Experimental data: PubChem BioAssay AID504467 (National Center for Advancing Translational Sciences (NCATS), 2011)
The whole screen tested about 330,000 compounds, of which about 7,700 (2.3%) were called active. The shares of active, inactive and inconclusive entries below differ from those in the screen. Calls follow the shape of the dose curve; as a rule, active = well fitted inhibition curve with a large enough effect; inconclusive = small, poorly fitted or top-dose-only effect, or effect the other way; inactive = flat fitted curve, though single readings scatter. Potencies of inconclusive entries are doubtful fits and often do not repeat.

test: qHTS screen for small molecules that inhibit ELG1-dependent DNA repair in human embryonic kidney (HEK293T) cells expressing luciferase-tagged ELG1; settings: HEK293T ELG1-luciferase reporter, luminescence, 16 h, DNA damage induced by 5-fluorouridine; series mostly up to 46.1 µM; also: nearly all actives have a fitted effect of over 55% in size
In short: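 Quantitative HTS, concentration-response format. 2,000 cells/well co-treated with 5-fluorouridine and compound, 16 hr in 5% CO2 at 37 °C; ONE-Glo luminescence read after 30 min.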
Potency is read from the fitted curve at half-maximal effect.

Row | Structure (SMILES) | Potency
1 | CC(CC(=O)NNC(=O)c1ccncc1)c1ccccc1 (centres undefined) | inactive
2 | Cc1nnnn1/C(=C\c1ccccc1)C(=O)OCC(=O)N1CC2(C)CC1CC(C)(C)C2 (centres undefined) | active: 20.6 µM
3 | O=C(CCc1ccccc1)NNC(=O)c1ccccn1 | inconclusive: 18.3 µM [inhibitor, single point]
4 | O=C(N/N=C/c1cc(Br)cc(Br)c1O)c1cccc(N2CCCC2=O)c1 | inconclusive: 23.1 µM [inhibitor, single point]
5 | COc1ccccc1NC(=O)Cn1nc(C)n2cccc2c1=O | inconclusive: 29.1 µM [activator, partial curve, poor fit]
6 | COc1cccc(/C=N/NC(=O)CC(=O)NCCc2ccc(OC)c(OC)c2)c1 | inconclusive: 1.3 µM [activator, single point]
7 | N#Cc1c2n(c3c(=O)n(CC(=O)c4ccc([N+](=O)[O-])cc4)cnc13)CCCCC2 | inconclusive: 18.4 µM [inhibitor, single point]
8 | CCn1c(SCC(=O)Nc2nc(-c3ccc(C)cc3)cs2)nnc1-c1ccccc1O | active: 16.4 µM
9 | CN1CCN(C2=Cc3ccccc3Sc3cc(F)c(F)cc32)CC1 | inactive
10 | O=C(Nc1cc2c(cc1C(=O)O)OCCCO2)c1ccc(C(F)(F)F)cc1 | inconclusive: 18.3 µM [activator, partial curve]
11 | O=C(NCc1ccc(Cl)cc1)C(=O)NCC1OCCN1S(=O)(=O)c1cc(F)ccc1F (centres undefined) | inactive
12 | CCCN(CCC)c1ncnc2c1cnn2-c1ccc(OC)cc1 | inconclusive: 0.651 µM [activator, full curve]
13 | NC1=NC(=O)S/C1=C\c1ccc(O)cc1 | inconclusive: 16.4 µM [activator, single point]
14 | O=C(CCNC(=O)c1ccc([N+](=O)[O-])cc1)Nc1ccc(S(=O)(=O)N2CCOCC2)cc1 | inconclusive: 16.4 µM [inhibitor, partial curve]
15 | Cc1ccc(C(=O)c2ccc([N+](=O)[O-])cc2)cc1C | inconclusive: 16.4 µM [activator, single point]
16 | CCCCCCCn1c(=O)c(C(=O)OC)c(N)c2ccccc21 | inconclusive: 18.3 µM [inhibitor, single point]
17 | COc1ccc(NC(=O)c2ccc(N3C(=O)C4CC=C(C)CC4C3=O)cc2)c(OC)c1 (centres undefined) | inactive
18 | COc1cccc(OC)c1OCC(=O)Nc1ccc(S(=O)(=O)N2CCCC2)cc1 | inconclusive: 4.61 µM [inhibitor, single point]
19 | O=C(NCCc1ccccc1)c1n[nH]c2ccccc12 | inconclusive: 18.3 µM [activator, partial curve]
20 | Cc1ccc(N2CC(C(=O)NCc3nnnn3-c3ccc(C)c(C)c3)CC2=O)cc1 (centres undefined) | inconclusive: 29.1 µM [activator, partial curve, poor fit]
21 | NC(=O)c1ccc(NC(=O)COC(=O)c2ccc3c(c2)OCO3)cc1 | inconclusive: 0.651 µM [activator, partial curve, poor fit]
22 | CC(=O)Cn1ncc(N2CCCCC2)c(Cl)c1=O | inconclusive: 23.1 µM [activator, partial curve]

Row | Structure (SMILES) | Potency
23 | COc1cc2cc(C(=O)N(C)C3CCS(=O)(=O)C3)[nH]c2cc1OC (centres undefined) | inactive
24 | N=C1CCCN1CC(=O)c1ccc(Cl)cc1 | inconclusive: 18.4 µM [activator, partial curve, poor fit]
25 | Cc1ccc(S(=O)(=O)NCCC(=O)NCc2ccco2)cc1 | inactive
26 | CCNC(=S)NC(=NCc1cccnc1)Nc1nc(C)cc(C)n1 | inactive
27 | COc1ccc(Nc2nnc(SC(C(=O)Nc3cc(C)ccc3C)c3ccccc3)s2)cc1 (centres undefined) | inconclusive: 25.9 µM [inhibitor, partial curve, poor fit]
28 | O=C(Nc1nc2ccc(Br)cc2s1)c1ccco1 | inconclusive: 35.5 µM [activator, partial curve, poor fit]
29 | Cc1ccc(Cn2c(C(=O)NCCCN3CCOCC3)cc3sccc32)cc1 | inactive
30 | COc1ccc(/C=N/Nc2nc(-c3ccc(Cl)cc3)cc(C(F)(F)F)n2)cc1OC | inconclusive: 20.6 µM [inhibitor, single point]
31 | O=C(CSc1nnnn1-c1ccc(O)cc1)c1ccc(F)cc1 | inconclusive: 20.6 µM [inhibitor, single point]
32 | CC(C)NC(=O)c1cc(-c2cccs2)on1 | inconclusive: 9.2 µM [activator, partial curve]
33 | CCCCn1nnnc1SCC(=O)Nc1ccc2c(c1)OCCO2 | inconclusive: 16.4 µM [activator, partial curve, poor fit]
34 | COc1ccc(CCNS(=O)(=O)c2cn(C)c(=O)n(C)c2=O)cc1 | inconclusive: 29.1 µM [activator, partial curve, poor fit]
35 | CCOc1cccc2sc(N(CCCN(C)C)C(=O)c3ccc(C(=O)c4ccccc4)cc3)nc12 | inactive
36 | COc1ccc(NC(=O)N(C)C[C@H]2Oc3c(NC(=O)NC4CCCCC4)cccc3C(=O)N([C@H](C)CO)C[C@@H]2C)cc1 | inconclusive: 16.4 µM [inhibitor, partial curve]
37 | C/C(=N\NC(=O)C1CC1)c1ccc(Cl)c(Cl)c1 | inconclusive: 16.4 µM [activator, single point]
38 | O=C(c1ccccc1CCc1ccccc1)N1CCCC1 | inconclusive: 0.58 µM [inhibitor, partial curve, poor fit]
39 | N#C/C=C/C(=C\Nc1ccc(Cl)cc1)S(=O)(=O)c1ccccc1 | inactive
40 | O=C(CCl)Oc1ccc2occ(C(=O)c3cccs3)c2c1 | inconclusive: 7.31 µM [activator, partial curve]
41 | FC(F)Oc1ccc(NC(=S)NCc2ccccc2)cc1Cl | inactive
42 | CCCCc1nc(NCCO)c(C#N)c2c1CCCC2 | inconclusive: 8.2 µM [inhibitor, partial curve]
43 | N/C(=N\OC(=O)c1ccc2ccccc2c1)c1cccc([N+](=O)[O-])c1 | inconclusive: 20.6 µM [activator, partial curve]
44 | Cc1nn2c(-c3ccc(Cl)cc3)nnc2s1 | inconclusive: 11.6 µM [activator, partial curve]

Three compounds from above, arranged by length of the SMILES, ascending.
Row | Structure (SMILES) | Potency
42 | CCCCc1nc(NCCO)c(C#N)c2c1CCCC2 | inconclusive: 8.2 µM [inhibitor, partial curve]
40 | O=C(CCl)Oc1ccc2occ(C(=O)c3cccs3)c2c1 | inconclusive: 7.31 µM [activator, partial curve]
31 | O=C(CSc1nnnn1-c1ccc(O)cc1)c1ccc(F)cc1 | inconclusive: 20.6 µM [inhibitor, single point]
